Experimental data: publication PMC10337854

Target: T1, Squamous cell carcinoma antigen recognized by T cells 3 (SART3) (human (endogenous in HCT116)) (UniProt Q15020)
T1 sequence: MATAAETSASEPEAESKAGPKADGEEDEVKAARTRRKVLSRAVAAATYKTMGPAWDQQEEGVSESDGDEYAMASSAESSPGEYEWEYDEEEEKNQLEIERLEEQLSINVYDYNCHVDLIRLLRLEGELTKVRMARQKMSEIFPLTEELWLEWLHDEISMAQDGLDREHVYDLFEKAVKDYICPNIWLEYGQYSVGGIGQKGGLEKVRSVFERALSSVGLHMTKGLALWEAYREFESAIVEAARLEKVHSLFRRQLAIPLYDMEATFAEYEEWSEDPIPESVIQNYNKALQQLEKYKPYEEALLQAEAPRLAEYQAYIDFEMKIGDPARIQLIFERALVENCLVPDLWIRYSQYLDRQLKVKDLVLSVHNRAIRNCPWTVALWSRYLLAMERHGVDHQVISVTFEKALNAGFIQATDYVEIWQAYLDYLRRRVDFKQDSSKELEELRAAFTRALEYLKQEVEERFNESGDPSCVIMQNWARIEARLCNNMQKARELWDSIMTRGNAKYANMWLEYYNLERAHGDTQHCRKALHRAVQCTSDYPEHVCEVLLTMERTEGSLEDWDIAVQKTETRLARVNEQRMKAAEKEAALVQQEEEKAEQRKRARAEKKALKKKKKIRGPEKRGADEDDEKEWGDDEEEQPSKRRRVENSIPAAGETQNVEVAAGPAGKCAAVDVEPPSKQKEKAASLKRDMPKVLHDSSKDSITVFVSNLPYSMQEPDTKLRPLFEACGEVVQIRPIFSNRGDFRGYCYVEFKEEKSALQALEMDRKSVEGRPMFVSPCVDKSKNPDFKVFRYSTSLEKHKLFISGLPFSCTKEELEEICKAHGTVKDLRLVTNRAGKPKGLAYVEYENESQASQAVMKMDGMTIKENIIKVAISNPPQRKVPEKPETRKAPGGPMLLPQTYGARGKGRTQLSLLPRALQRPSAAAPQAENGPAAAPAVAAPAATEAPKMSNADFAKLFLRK
Assay: affinity purification with mass spectrometry; SART3 immunoprecipitated from HCT116 cell lysates; coprecipitated proteins analyzed by LC-MS/MS

binding: binds
B1: USP4 (enzyme, UniProt Q13107 1-963)
chain: MAEGGGCRERPDAETQKSELGPLMRTTLQRGAQWYLIDSRWFKQWKKYVGFDSWDMYNVGEHNLFPGPIDNSGLFSDPESQTLKEHLIDELDYVLVPTEAWNKLLNWYGCVEGQQPIVRKVVEHGLFVKHCKVEVYLLELKLCENSDPTNVLSCHFSKADTIATIEKEMRKLFNIPAERETRLWNKYMSNTYEQLSKLDNTVQDAGLYQGQVLVIEPQNEDGTWPRQTLQSKSSTAPSRNFTTSPKSSASPYSSVSASLIANGDSTSTCGMHSSGVSRGGSGFSASYNCQEPPSSHIQPGLCGLGNLGNTCFMNSALQCLSNTAPLTDYFLKDEYEAEINRDNPLGMKGEIAEAYAELIKQMWSGRDAHVAPRMFKTQVGRFAPQFSGYQQQDSQELLAFLLDGLHEDLNRVKKKPYLELKDANGRPDAVVAKEAWENHRLRNDSVIVDTFHGLFKSTLVCPECAKVSVTFDPFCYLTLPLPLKKDRVMEVFLVPADPHCRPTQYRVTVPLMGAVSDLCEALSRLSGIAAENMVVADVYNHRFHKIFQMDEGLNHIMPRDDIFVYEVCSTSVDGSECVTLPVYFRERKSRPSSTSSASALYGQPLLLSVPKHKLTLESLYQAVCDRISRYVKQPLPDEFGSSPLEPGACNGSRNSCEGEDEEEMEHQEEGKEQLSETEGSGEDEPGNDPSETTQKKIKGQPCPKRLFTFSLVNSYGTADINSLAADGKLLKLNSRSTLAMDWDSETRRLYYDEQESEAYEKHVSMLQPQKKKKTTVALRDCIELFTTMETLGEHDPWYCPNCKKHQQATKKFDLWSLPKILVVHLKRFSYNRYWRDKLDTVVEFPIRGLNMSEFVCNLSARPYVYDLIAVSNHYGAMGVGHYTAYAKNKLNGKWYYFDDSNVSLASEDQIVTKAAYVLFYQRRDDEFYKTPSLSSSGSSDGGTRPSSSQQGFGDDEACSMDTN

binding: binds
B2: ubiquitin-specific peptidase USP15 (enzyme, UniProt Q9Y4E8 1-981)
chain: MAEGGAADLDTQRSDIATLLKTSLRKGDTWYLVDSRWFKQWKKYVGFDSWDKYQMGDQNVYPGPIDNSGLLKDGDAQSLKEHLIDELDYILLPTEGWNKLVSWYTLMEGQEPIARKVVEQGMFVKHCKVEVYLTELKLCENGNMNNVVTRRFSKADTIDTIEKEIRKIFSIPDEKETRLWNKYMSNTFEPLNKPDSTIQDAGLYQGQVLVIEQKNEDGTWPRGPSTPKSPGASNFSTLPKISPSSLSNNYNNMNNRNVKNSNYCLPSYTAYKNYDYSEPGRNNEQPGLCGLSNLGNTCFMNSAIQCLSNTPPLTEYFLNDKYQEELNFDNPLGMRGEIAKSYAELIKQMWSGKFSYVTPRAFKTQVGRFAPQFSGYQQQDCQELLAFLLDGLHEDLNRIRKKPYIQLKDADGRPDKVVAEEAWENHLKRNDSIIVDIFHGLFKSTLVCPECAKISVTFDPFCYLTLPLPMKKERTLEVYLVRMDPLTKPMQYKVVVPKIGNILDLCTALSALSGIPADKMIVTDIYNHRFHRIFAMDENLSSIMERDDIYVFEININRTEDTEHVIIPVCLREKFRHSSYTHHTGSSLFGQPFLMAVPRNNTEDKLYNLLLLRMCRYVKISTETEETEGSLHCCKDQNINGNGPNGIHEEGSPSEMETDEPDDESSQDQELPSENENSQSEDSVGGDNDSENGLCTEDTCKGQLTGHKKRLFTFQFNNLGNTDINYIKDDTRHIRFDDRQLRLDERSFLALDWDPDLKKRYFDENAAEDFEKHESVEYKPPKKPFVKLKDCIELFTTKEKLGAEDPWYCPNCKEHQQATKKLDLWSLPPVLVVHLKRFSYSRYMRDKLDTLVDFPINDLDMSEFLINPNAGPCRYNLIAVSNHYGGMGGGHYTAFAKNKDDGKWYYFDDSSVSTASEDQIVSKAAYVLFYQRQDTFSGTGFFPLDRETKGASAATGIPLESDEDSNDNDNDIENENCMHTN

Results are given in words; binding and its absence hold for the method and conditions named. Binding seen in cells or lysates may run through a third protein. Here binding means that the protein was enriched with, or labelled near, the bait; the list need not be complete. Each block holds one binder with its values, some of them ahead of it.
